Measurements from paper PMC11391011.
Results are given in words; binding and its absence hold for the method and conditions named. In cells and extracts the contact can be indirect. Some results given as binding are weak or reduced against the parent protein; the word gives no strength. For some of these results: Sequences can lack the tags named with a protein. Values belong to the molecule of their own block, whether it stands above or below them.

Protein sequences, listed by entry. Tags and fused reporters are not part of them.
UniProt P16615: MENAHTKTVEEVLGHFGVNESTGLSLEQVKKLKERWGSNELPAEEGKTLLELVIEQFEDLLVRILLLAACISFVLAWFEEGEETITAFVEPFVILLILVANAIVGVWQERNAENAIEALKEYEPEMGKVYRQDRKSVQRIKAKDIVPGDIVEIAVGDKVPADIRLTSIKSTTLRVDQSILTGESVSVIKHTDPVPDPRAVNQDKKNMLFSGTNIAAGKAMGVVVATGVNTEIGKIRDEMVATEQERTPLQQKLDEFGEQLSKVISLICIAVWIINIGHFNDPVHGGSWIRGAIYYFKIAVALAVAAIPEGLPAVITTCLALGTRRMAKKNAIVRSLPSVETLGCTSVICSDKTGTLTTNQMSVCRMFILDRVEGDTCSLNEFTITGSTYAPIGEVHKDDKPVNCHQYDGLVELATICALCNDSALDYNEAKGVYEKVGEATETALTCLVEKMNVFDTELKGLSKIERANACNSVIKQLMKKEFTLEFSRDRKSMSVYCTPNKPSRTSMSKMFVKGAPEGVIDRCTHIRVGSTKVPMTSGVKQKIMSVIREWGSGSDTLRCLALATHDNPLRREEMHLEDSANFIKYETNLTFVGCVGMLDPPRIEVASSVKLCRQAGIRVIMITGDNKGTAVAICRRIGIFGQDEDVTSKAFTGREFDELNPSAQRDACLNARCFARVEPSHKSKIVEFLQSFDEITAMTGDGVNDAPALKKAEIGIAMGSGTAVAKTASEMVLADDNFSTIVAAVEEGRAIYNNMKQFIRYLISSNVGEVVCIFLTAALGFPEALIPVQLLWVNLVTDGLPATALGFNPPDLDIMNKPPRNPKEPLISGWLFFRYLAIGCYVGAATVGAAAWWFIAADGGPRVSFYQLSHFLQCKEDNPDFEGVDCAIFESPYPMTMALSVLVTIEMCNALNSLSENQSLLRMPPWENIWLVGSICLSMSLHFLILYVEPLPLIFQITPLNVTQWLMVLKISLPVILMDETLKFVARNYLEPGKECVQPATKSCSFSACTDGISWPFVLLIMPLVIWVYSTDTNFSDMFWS
UniProt P0DI80: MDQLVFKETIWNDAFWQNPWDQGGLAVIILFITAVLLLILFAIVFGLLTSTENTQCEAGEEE
UniProt P26678: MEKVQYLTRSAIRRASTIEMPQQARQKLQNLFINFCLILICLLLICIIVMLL
UniProt P0DTC4: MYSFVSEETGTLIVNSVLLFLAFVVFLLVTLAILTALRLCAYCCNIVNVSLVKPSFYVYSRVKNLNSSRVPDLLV

Tests used:
[1] = target: endogenous SERCA2 of HeLa cells (human (endogenous in HeLa)) (UniProt P16615); test: co-IP
[2] = target: T1, human another-regulin (ALN), N-terminally labelled with eGFP or mCherry (human) (UniProt Q8WVX3); test: FRET or BRET
T1 sequence: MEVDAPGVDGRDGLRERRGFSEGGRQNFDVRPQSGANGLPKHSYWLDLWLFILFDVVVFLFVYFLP

[3] = target: human endoregulin (ELN), N-terminally labelled with eGFP or mCherry (human) (UniProt P0DI80); test: FRET or BRET
[4] = target: human phospholamban, N-terminally (cytosolic side) labelled with eGFP or mCherry (human) (UniProt P26678); test: FRET or BRET
[5] = target: human endoregulin (ELN), N-terminally labelled with eGFP or mCherry (human) (UniProt P0DI80); test: FRET or BRET; […] region of interest within the ER; FRET efficiency by FRETcalc
[6] = target: T1, human another-regulin (ALN), N-terminally labelled with eGFP or mCherry (human); test: FRET or BRET; […] donor eGFP, acceptor mCherry; region of interest within the ER; FRET efficiency by FRETcalc
[7] = target: human endoregulin (ELN), N-terminally labelled with eGFP or mCherry (human) (UniProt P0DI80); test: as above
[8] = target: human phospholamban, N-terminally (cytosolic side) labelled with eGFP or mCherry (human) (UniProt P26678); test: as above

Molecule: SARS-CoV-2 envelope (E) protein, N-terminally labelled with eGFP or mCherry (from UniProt P0DTC4 1-75)
- binding [1]: binds
- binding [2]: binds
- binding [3]: binds
- binding [4]: binds

- binding [5]: binds
Molecule: human endoregulin (ELN), N-terminally labelled with eGFP or mCherry (from UniProt P0DI80 1-62)

- binding [6]: binds
- binding [7]: binds
- binding [8]: binds
Molecule: human phospholamban, N-terminally (cytosolic side) labelled with eGFP or mCherry (from UniProt P26678 1-52)

- binding [6]: binds
- binding [7]: binds
B1: human another-regulin (ALN), N-terminally labelled with eGFP or mCherry (protein, UniProt Q8WVX3-1 1-66)
chain: MEVDAPGVDGRDGLRERRGFSEGGRQNFDVRPQSGANGLPKHSYWLDLWLFILFDVVVFLFVYFLP
